# Laboratory results: patent US7230157B1, “Chemical inducible promoter used to obtain transgenic plants with a silent marker and organisms and cells and methods of using same for screening for mutations” (The Rockefeller University, priority 1998, dated 2007)
# For at least one compound, name, drawing or mass did not settle the structure.
# Tested on: tobacco leaf explants
# Experiment: Shoot regeneration from tobacco leaf explants transformed with pTA7002/ipt
# Format: cell-based
# Conditions: 30 μM DEX, MBC medium, after two weeks
structure (smiles),measurement,value
"C[C@@H]1C[C@H]2[C@@H]3CCC4=CC(=O)C=C[C@]4(C)[C@@]3(F)[C@@H](O)C[C@]2(C)[C@@]1(O)C(=O)CO [DEX, dexamethasone]",shoot bud formation at wound sites of explants,green shoot buds appeared
